This note sets out measurements from patent US20240287483.

Construct, isoform or probe ends are uncertain for at least one entry.

The series relates to Pol 37. Briefly: binding assay. As to conditions: purified recombinant protein.

In the case of “GTTCCTGTCCACCTCC / TCAGTCTCTCTCTCTCTCTCTCTCGGAGGTGGACAGGAAC [(CT)10G primer/template, Pacific Blue]”, the binding result (faster than Pol 75, label: Pacific Blue on 5'-terminal T of template, variant of (CT)10G primer/template) is “binds”.
Regarding “GTTCCTGTCCACCTCC / TCAGTCTCTCTCTCTCTCTCTCTCGGAGGTGGACAGGAAC [(CT)10G primer/template]”, the binding result (FRET extension with labeled dNTPs, 2 mM MgCl2, 60 mM NaCl, 45 C) is given as “binds”.
